Values from PubChem BioAssay AID1159578 (Peter MacCallum Cancer Centre, 2015)
Purpose: 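Knock-downs that alter how fast lymphatic endothelial cells migrate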 (primary screen). Cells: human lymphatic endothelial cells. Knock-down reagent: siRNA pool against human genes, 40 nM. Timing: 48 h after transfection. Detection: 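High-content imaging of dye-stained cells in a scratch assay measures filled wound area and nuclei per well; duplicate means given as ratio to mock and robust z-score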. Reading the numbers: migration robust z-score: higher = faster migration into the scratch; migration relative to mock: higher = more scratch area covered than mock; nuclei per well: higher = more cells in the well. Active means: 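Migration changed when robust z exceeds 2 or falls below -2 and mean nuclei number is at least 3300; otherwise not called changed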. Meaning of the calls: active = migration changed; inactive = no migration change, or too few cells.
Shown is a random part of about 18,000 reagents. Of all reagents, about 1,030 (5.7%) are marked active. 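Inactive calls also include pools with fewer than 3300 nuclei, whose migration was not assessed.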 The raw values are shown without normalisation.

target gene | migration robust z-score | migration class with cell-count check | migration relative to mock | nuclei per well, duplicate mean | Outcome
NTN1 (netrin 1) | 0.65 | migration z between -2 and 2; enough cells | 1.06 | 4922 | inactive
GABRA4 (gamma-aminobutyric acid type A receptor subunit alpha4) | 1.69 | migration z between -2 and 2; enough cells | 1.13 | 4046 | inactive
TRIM51 (tripartite motif-containing 51) | 0.52 | migration z between -2 and 2; enough cells | 0.9 | 5912 | inactive
EPN1 (epsin 1) | -0.52 | migration z between -2 and 2; enough cells | 0.75 | 5699 | inactive
APBB1IP | -0.23 | migration z between -2 and 2; enough cells | 0.83 | 5800 | inactive
MIPOL1 (mirror-image polydactyly 1) | -0.98 | migration z between -2 and 2; enough cells | 0.63 | 4900 | inactive
RASA1 (RAS p21 protein activator 1) | 0.22 | migration z between -2 and 2; enough cells | 0.94 | 6560 | inactive
FBRS (fibrosin) | -1.49 | migration z between -2 and 2; enough cells | 0.5 | 6127 | inactive
GPR156 (G protein-coupled receptor 156) | -1.29 | migration z between -2 and 2; enough cells | 0.55 | 4823 | inactive
PRDM15 (PR/SET domain 15) | 0.71 | migration z between -2 and 2; enough cells | 1.07 | 5113 | inactive
KCNK17 (potassium two pore domain channel subfamily K member 17) | -1.71 | migration z between -2 and 2; enough cells | 0.48 | 4440 | inactive
MAP3K1 (mitogen-activated protein kinase kinase kinase 1) | -0.86 | migration z between -2 and 2; enough cells | 0.64 | 6457 | inactive
RAB40AL (RAB40A like) | -1.12 | migration z between -2 and 2; enough cells | 0.59 | 5266 | inactive
HOXB4 (homeobox B4) | 0.4 | migration z between -2 and 2; enough cells | 0.99 | 6828 | inactive
ZNF451 (zinc finger protein 451) | -0.15 | migration z between -2 and 2; enough cells | 0.85 | 4422 | inactive
TBC1D10A (TBC1 domain family member 10A) | 0.35 | migration z between -2 and 2; enough cells | 0.98 | 6012 | inactive
CLCA3P (chloride channel accessory 3, pseudogene) | 1.04 | migration z between -2 and 2; enough cells | 1 | 6192 | inactive
TRIM5 (tripartite motif containing 5) | 0.49 | migration z between -2 and 2; enough cells | 0.9 | 6362 | inactive
MYBPC3 (myosin binding protein C3) | -0.34 | migration z between -2 and 2; enough cells | 0.8 | 6070 | inactive
SARNP (SAP domain containing ribonucleoprotein) | 0.02 | migration z between -2 and 2; enough cells | 0.89 | 5560 | inactive
CEACAM3 (CEA cell adhesion molecule 3) | -0.24 | migration z between -2 and 2; enough cells | 0.82 | 4199 | inactive
ABCG5 (ATP binding cassette subfamily G member 5) | -3.01 | migration z below -2; enough cells | 0.22 | 3520 | active
NXPH2 (neurexophilin 2) | -0.89 | migration z between -2 and 2; enough cells | 0.66 | 4522 | inactive
ARHGAP12 (Rho GTPase activating protein 12) | 0.39 | migration z between -2 and 2; enough cells | 0.99 | 6164 | inactive
CEP43 (centrosomal protein 43) | 0.76 | migration z between -2 and 2; enough cells | 1.07 | 6708 | inactive
GPRASP3 | -0.58 | migration z between -2 and 2; enough cells | 0.74 | 6993 | inactive

Looked up above.
Under “migration robust z-score”, MIPOL1 (mirror-image polydactyly 1) shows -0.98
For “migration robust z-score”, CLCA3P (chloride channel accessory 3, pseudogene) is entered as 1.04
For “Outcome”, MYBPC3 (myosin binding protein C3) has inactive
Entry of CEP43 (centrosomal protein 43) under “migration robust z-score”: 0.76

Further entries follow:
target gene | migration robust z-score | migration class with cell-count check | migration relative to mock | nuclei per well, duplicate mean | Outcome
TUBA1C (tubulin alpha 1c) | -1.91 | under 3300 nuclei; migration not judged | 0.38 | 2701 | inactive
TCL1A (TCL1 family AKT coactivator A) | 0.28 | migration z between -2 and 2; enough cells | 0.96 | 4569 | inactive
MTG1 (mitochondrial ribosome associated GTPase 1) | -0.92 | migration z between -2 and 2; enough cells | 0.64 | 4945 | inactive
UBXN2B (UBX domain protein 2B) | -0.03 | migration z between -2 and 2; enough cells | 0.88 | 5522 | inactive
CHCHD2 (coiled-coil-helix-coiled-coil-helix domain containing 2) | 0.6 | migration z between -2 and 2; enough cells | 1.03 | 7368 | inactive
MTF2 (metal response element binding transcription factor 2) | -0.68 | migration z between -2 and 2; enough cells | 0.68 | 4634 | inactive
GABRE (gamma-aminobutyric acid type A receptor subunit epsilon) | -0.64 | migration z between -2 and 2; enough cells | 0.68 | 4778 | inactive
LILRB3 (leukocyte immunoglobulin like receptor B3) | -2.1 | migration z below -2; enough cells | 0.34 | 3721 | active
UCK1 (uridine-cytidine kinase 1) | -0.54 | migration z between -2 and 2; enough cells | 0.7 | 5590 | inactive
ALPK1 (alpha kinase 1) | -4.51 | under 3300 nuclei; migration not judged | -0.06 | 2288 | inactive
OR4C15 (olfactory receptor family 4 subfamily C member 15) | -1.64 | migration z between -2 and 2; enough cells | 0.46 | 4911 | inactive
GPR151 (G protein-coupled receptor 151) | 0.42 | migration z between -2 and 2; enough cells | 0.88 | 6087 | inactive
RORA (RAR related orphan receptor A) | -0.02 | migration z between -2 and 2; enough cells | 0.8 | 5224 | inactive
FBXL8 (F-box and leucine rich repeat protein 8) | -1.77 | migration z between -2 and 2; enough cells | 0.46 | 5417 | inactive
TBCA (tubulin folding cofactor A) | -0.8 | migration z between -2 and 2; enough cells | 0.68 | 5684 | inactive
MMP2 (matrix metallopeptidase 2) | 0.16 | migration z between -2 and 2; enough cells | 0.84 | 5752 | inactive
FAM117B (family with sequence similarity 117 member B) | 3.25 | migration z above 2; enough cells | 1.73 | 5404 | active
PGR (progesterone receptor) | 0.34 | migration z between -2 and 2; enough cells | 0.87 | 5488 | inactive
SLC15A3 | 0.03 | migration z between -2 and 2; enough cells | 0.9 | 7447 | inactive
PDSS1 (decaprenyl diphosphate synthase subunit 1) | -0.57 | migration z between -2 and 2; enough cells | 0.7 | 5246 | inactive
OTOS (otospiralin) | -2.65 | migration z below -2; enough cells | 0.2 | 6307 | active
SOAT2 (sterol O-acyltransferase 2) | -0.43 | migration z between -2 and 2; enough cells | 0.77 | 6034 | inactive
RBM10 (RNA binding motif protein 10) | -0.58 | migration z between -2 and 2; enough cells | 0.74 | 4768 | inactive
EXOSC4 (exosome component 4) | 1.27 | migration z between -2 and 2; enough cells | 1.05 | 4585 | inactive
LIG4 (DNA ligase 4) | -1.2 | migration z between -2 and 2; enough cells | 0.57 | 5952 | inactive
TMC3 (transmembrane channel like 3) | 0.28 | migration z between -2 and 2; enough cells | 0.96 | 6842 | inactive
OR7C1 (olfactory receptor family 7 subfamily C member 1) | 0.75 | migration z between -2 and 2; enough cells | 1.08 | 5460 | inactive
NDUFA10 (NADH:ubiquinone oxidoreductase subunit A10) | 0.44 | migration z between -2 and 2; enough cells | 0.89 | 6784 | inactive
HOXD12 (homeobox D12) | 0.14 | migration z between -2 and 2; enough cells | 0.92 | 5034 | inactive
MCUR1 (mitochondrial calcium uniporter regulator 1) | -0.99 | migration z between -2 and 2; enough cells | 0.63 | 6668 | inactive
KPNB1 (karyopherin subunit beta 1) | -1.61 | migration z between -2 and 2; enough cells | 0.5 | 4914 | inactive
